In PMC4354016, “Centromeric binding and activity of Protein Phosphatase 4” (Nature Communications, 2015):
These are yes or no findings as the source states them, for the method shown. Binding seen in cells or lysates may run through a third protein. For part of these data: Binding calls can cover weak binding; strength is not graded here. For part of these data: Where a sequence is shown, tags or fusion partners need not be part of it. Blank lines part the entries; values can stand above or below the binder they belong to.

Sequences of proteins named here, by UniProt entry; tags and fusion partners are left off. A change or cut given only in a name is not applied to a line headed by its entry.
UniProt Q9VFS5: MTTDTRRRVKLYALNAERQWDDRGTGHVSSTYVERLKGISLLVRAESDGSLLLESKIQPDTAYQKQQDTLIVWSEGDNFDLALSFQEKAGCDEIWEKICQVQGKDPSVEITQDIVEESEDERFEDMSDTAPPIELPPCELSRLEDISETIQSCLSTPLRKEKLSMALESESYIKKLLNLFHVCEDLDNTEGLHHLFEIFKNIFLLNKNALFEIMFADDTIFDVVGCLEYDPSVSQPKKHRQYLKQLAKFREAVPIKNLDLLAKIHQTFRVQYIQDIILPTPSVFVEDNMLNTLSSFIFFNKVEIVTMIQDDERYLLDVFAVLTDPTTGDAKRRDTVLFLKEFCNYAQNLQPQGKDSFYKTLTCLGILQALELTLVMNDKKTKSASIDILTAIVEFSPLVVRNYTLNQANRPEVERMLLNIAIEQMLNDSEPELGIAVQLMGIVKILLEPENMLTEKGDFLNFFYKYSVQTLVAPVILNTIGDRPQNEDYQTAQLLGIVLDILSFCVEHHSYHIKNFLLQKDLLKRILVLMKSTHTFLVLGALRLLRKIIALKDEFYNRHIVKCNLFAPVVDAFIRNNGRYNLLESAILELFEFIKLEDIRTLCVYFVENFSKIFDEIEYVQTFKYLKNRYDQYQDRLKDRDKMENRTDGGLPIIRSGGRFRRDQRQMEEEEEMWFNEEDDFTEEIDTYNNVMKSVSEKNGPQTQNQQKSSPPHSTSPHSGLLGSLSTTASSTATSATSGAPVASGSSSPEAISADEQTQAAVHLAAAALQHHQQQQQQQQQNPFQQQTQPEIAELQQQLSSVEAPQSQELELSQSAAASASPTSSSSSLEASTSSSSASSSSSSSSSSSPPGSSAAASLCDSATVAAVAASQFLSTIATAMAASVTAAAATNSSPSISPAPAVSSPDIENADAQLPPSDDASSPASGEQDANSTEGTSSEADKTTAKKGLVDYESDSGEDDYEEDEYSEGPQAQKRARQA

Experiments:
[1] = target: GFP::Flfl (Drosophila melanogaster) (UniProt Q9VFS5); test: co-IP; GFP-Trap beads; D.Mel-2 cells expressing FLAG::CENP-C (WT or ΔFIM) transiently co-transfected with GFP-tagged Flfl forms; immunoblot
[2] = target: GST-tagged Flfl^C (aa 667–973) (Drosophila melanogaster) (UniProt Q9VFS5); test: pull-down; GST-tagged bait on Glutathione Sepharose 4b, IVTT 35S-Met-labelled prey, 1 h 25 °C, 50 mM HEPES pH 7.4, 150 mM NaCl, 0.1% Triton X-100, 0.5 mg/ml BSA; autoradiography; only the target purified

binding [1]: no binding
B1: FLAG::CENP-C^ΔFIM (protein, UniProt Q9VHP9)
chain: MSKPQNNDTLELDDILSQPVKDKERFAAFMMRKLAENKPAQNDNLFGNFKLDFDLDFEVPLIKKSQAKPKSKLPEVQPLGELVSKNSAATEKVNEPPVDQAPNENVPPRRSPTLSPNNRRSMRRSGNVPGSDKLRRHAIRRRSRSCGRQLLPEFEETVNLTRSISSPVNFLPEISSTPCTEKQKEEVAKNTTRVETDKPAEKPMELSQEPEPENPLQTKVTSPARNPILAAEIEQICKERQSSFHKNVLQLDYSGRAPYSRPPTPSSPSVAGLRRTYTMEKGPAPGQLLLSPSHRYDTPSKMPVVKAKRFNQELMVPDTPERQSHDPAWQSEPQPEFVVPETQPQDLGELVQTLSRSAISPIVVINTSNSNRSVRRDAVAMKSVPTSPVTALSSPPIAPSPRRSAAASPQKSIAQLPRVEENMDAIMTDDESDEHPSTVPLNLAPSGGNTTRQRRLRSSNRARATIESQESSMRLLNLHKSVNAKKSKPRKTAIPLNKAPSAPINGEQFARELTRMSNYEILDLRKRNSLNEIYPLNGHRNHRSEKLILEEEIQRELLRRNLMDEAEGLPKQQSSDDSNEDYIPVPPKTQSLRTKSNDRSQGRGRPRSTRRDLPMTTELVNYLGLSQTLETRRKSSKDGKRCLYTKGSSDHEDNDSLSPVKLPRLSKSIQIVPPPPVSLRYSQSLQNLPCSGKFDFDNVVMAAPPDFHDSVNSDAIEIAPPPPEYVVNTRGRSTSGRKSNKNDLVLPPPGYEGGQEEEHDERPSQPRCTAKELQQSTQNGRRAMENELVPPPIEYVEEENRNNEQSRRSTKNGNLVDRNTHNAVEYCEPPEPPEYDDSDHGQASILRRSGKKLQHSKQSVQKSNKEQIIAPSYENNEDYDSDEEPIYNEEYGKEESQNKNVTRRKSDKDEMASHTLECIEGPDPNWNSSCNKQNRNHQNASKSKENDKLANRSSKSQKLSNPRQNAVGTEKSVALSNRGEECTEKSSDVMESLRVNTPTPPIDQNSDDVPSRNPSPSRTLLSDDVPSTSRAALEFLQRSQNMSKSRPAKSKKGKSEVDKLKLAKMPVEAEELNTTGIRRSKRGQVPLQMSWCHTMDPSKFNFMSGFIEPRSKNSKTKKGNLSKAKKASATKPKPTVEKNLPDNRGPLCSSTPRISEKLPGAIPHSESLGLSTLTWEETEVQAEAEKVPKKRGRPKKAVGGVQTDTEAEPEPEPEPMISSVAPLTSDQEEPDVPDEQAPYTEAALGPVVFSTPLRDEQEEASTKLMQWLRGVGDAPPSASMSDENASVSSANELIFCQVDGIDYAFYNTKEKAMLGYMRFKPYQKRSMKQAKVHPLKLLVQFGEFNVETLAVGEEKEVHSVLRVGDMIEIDRGTRYSIQNAIDKVSVLMCIRS

binding [1]: binds
B2: FLAG::CENP-C^WT (protein, UniProt Q9VHP9 1-1411)
chain: MSKPQNNDTLELDDILSQPVKDKERFAAFMMRKLAENKPAQNDNLFGNFKLDFDLDFEVPLIKKSQAKPKSKLPEVQPLGELVSKNSAATEKVNEPPVDQAPNENVPPRRSPTLSPNNRRSMRRSGNVPGSDKLRRHAIRRRSRSCGRQLLPEFEETVNLTRSISSPVNFLPEISSTPCTEKQKEEVAKNTTRVETDKPAEKPMELSQEPEPENPLQTKVTSPARNPILAAEIEQICKERQSSFHKNVLQLDYSGRAPYSRPPTPSSPSVAGLRRTYTMEKGPAPGQLLLSPSHRYDTPSKMPVVKAKRFNQELMVPDTPERQSHDPAWQSEPQPEFVVPETQPQDLGELVQTLSRSAISPIVVINTSNSNRSVRRDAVAMKSVPTSPVTALSSPPIAPSPRRSAAASPQKSIAQLPRVEENMDAIMTDDESDEHPSTVPLNLAPSGGNTTRQRRLRSSNRARATIESQESSMRLLNLHKSVNAKKSKPRKTAIPLNKAPSAPINGEQFARELTRMSNYEILDLRKRNSLNEIYPLNGHRNHRSEKLILEEEIQRELLRRNLMDEAEGLPKQQSSDDSNEDYIPVPPKTQSLRTKSNDRSQGRGRPRSTRRDLPMTTELVNYLGLSQTLETRRKSSKDGKRCLYTKGSSDHEDNDSLSPVKLPRLSKSIQIVPPPPVSLRYSQSLQNLPCSGKFDFDNVVMAAPPDFHDSVNSDAIEIAPPPPEYVVNTRGRSTSGRKSNKNDLVLPPPGYEGGQEEEHDERPSQPRCTAKELQQSTQNGRRAMENELVPPPIEYVEEENRNNEQSRRSTKNGNLVDRNTHNAVEYCEPPEPPEYDDSDHGQASILRRSGKKLQHSKQSVQKSNKEQIIAPSYENNEDYDSDEEPIYNEEYGKEESQNKNVTRRKSDKDEMASHTLECIEGPDPNWNSSCNKQNRNHQNASKSKENDKLANRSSKSQKLSNPRQNAVGTEKSVALSNRGEECTEKSSDVMESLRVNTPTPPIDQNSDDVPSRNPSPSRTLLSDDVPSTSRAALEFLQRSQNMSKSRPPDESSADVVFKKPLAPAPRAKSKKGKSEVDKLKLAKMPVEAEELNTTGIRRSKRGQVPLQMSWCHTMDPSKFNFMSGFIEPRSKNSKTKKGNLSKAKKASATKPKPTVEKNLPDNRGPLCSSTPRISEKLPGAIPHSESLGLSTLTWEETEVQAEAEKVPKKRGRPKKAVGGVQTDTEAEPEPEPEPMISSVAPLTSDQEEPDVPDEQAPYTEAALGPVVFSTPLRDEQEEASTKLMQWLRGVGDAPPSASMSDENASVSSANELIFCQVDGIDYAFYNTKEKAMLGYMRFKPYQKRSMKQAKVHPLKLLVQFGEFNVETLAVGEEKEVHSVLRVGDMIEIDRGTRYSIQNAIDKVSVLMCIRS

binding [2]: no binding
B3: ^35S-Met-labelled full-length CENP-C (IVTT) (protein, UniProt Q9VHP9 1-1411)
chain: B2 chain
modifications: 35S-methionine labelled
